Literature values in patent US12383593B2, “Organic pain relief and hair growth composition” (The Tao Talit Corporation, priority 2021, dated 2025).
At least one structure is not confirmed: it was looked up by name or label, or the drawing left a doubt.

Test system: hypertension induced by NO synthase inhibition

## O=C(/C=C/C=C/c1ccc2c(c1)OCO2)N1CCCCC1 [Piperine]
  hypertension: alleviates hypertension
